According to PubChem BioAssay AID1347423 (Functional Genomics Laboratory (NCATS/FGL), 2020):
Hit rate of the full screen: of about 52,000 sequences, about 210 (0.4%) were called active.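 How the source made its calls: active means gene whose silencing raises cell survival under the drug, median off-target-corrected z-score across its silencing RNAs 2 or more; inactive means the rest.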 This is one part of the list.

Experiment: Resistance to Poly (ADP-Ribose) Polymerase inhibitor: Gene Identification via Genome-wide siRNA Screen
Conditions: mouse BRCA2 R2336H ES cells, olaparib, CellTiter-Glo viability; hits give high values
Outline: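 Mouse BRCA2 R2336H ES cells were reverse-transfected with siRNA (20 nM final), treated at 48 h with 500 nM olaparib, and read by CellTiter-Glo after 72 h. Scores: MAD-based z per siRNA, median per gene, seed off-target correction.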

| Sequence | z-score |
| --- | --- |
| GCAAAUUUAAGAGAAGUUGTT against Sart2 | inactive: 0.642 |
| CGGCCAAUUUGCCUUUCUCTT against Hes1 | inactive: 0.651 |
| GGAUCACGUUUCAAACAUCTT against Pip3ap | inactive: 0.0755 |
| GCUUGUAAUGGUUAAUGUATT against Wtap | inactive: -0.0729 |
| GGACUAGAAACAAUGUCAATT against Siat10 | inactive: 1.18 |
| GGACGAGAUGAACAGCCUCTT against Chkb | inactive: -2.34 |
| GGCAUUGGUUAAAAAAGUUTT against Otx2 | inactive: -0.919 |
| GCACUUCCUAACUGGUGCUTT against Olfr996 | inactive: 4.5 |
| CGGAAUGUCAAUUUAAAGATT against Adam18 | inactive: 0.82 |
| GCGAAAGUCUACAAAAGAGTT against Thrap3 | inactive: -1.48 |
| AGGAGCUCCUCAAAGCUCUTT against Zfp395 | inactive: -0.461 |
| GCCUUAACUCUUCUGGGAGTT against Stam | inactive: 1.25 |
| GGUGCUCAUUGCUGUUUCUTT against BC011487 | inactive: -2.23 |
| CGUGCCAUAAUACACUAUCTT against Gng5 | inactive: -1.15 |
| GGCGAUGCUUCUUCAGUACTT against 1700030E05Rik | inactive: -1.01 |
| UCGAUGUACUGAGCUAAGGTT against Psme2 | inactive: 0.473 |
| CCAUGAAGAUUUCUCGUUUTT against Ifrd1 | inactive: 0.85 |
| CCGCCUAAAAUCAGAAGCATT against 2900042E01Rik | inactive: -0.00286 |
| GGUCUUGGUCCCUGAGAAATT against Ddit4l | inactive: -1.26 |
| GCCCGAUAUCGUGUUUUUCTT against Sirt2 | inactive: 0.571 |
| GCAAAACUUAUCUGACCUATT against Smn1 | inactive: 0.948 |
| GCCCUGUGCUUGGCAACAUTT against Ssbp3 | inactive: -0.405 |
| CGCAAAAAUCAGCACAGCUTT against Ptp4a3 | inactive: 0.652 |
| GCUUGUCCUAUCUAUUUUATT against Mthfd2 | inactive: 1.25 |
| GCAUAAAGCAGUCAUGCUUTT against 4933433P14Rik | inactive: -0.36 |
| GGAGACUACUUUGUGUUUUTT against MGC28180 | inactive: 0.668 |

| Sequence | z-score |
| --- | --- |
| GGCAAAGAAAACCAUGUCCTT against Zfp82 | inactive: 0.74 |
| GCUUGUACUGCUAAUACUUTT against Pggt1b | inactive: -0.799 |
| GGUGAACACCUUUAUGAGGTT against Dguok | inactive: 0.547 |
| GGAUGAACCAAGCUACUGCTT against Gba2 | inactive: 0.0382 |
| GUGUGCUUGAUGGAGACCATT against 2310007A19Rik | inactive: 1.79 |
| GGAUGGUAUAUGAUGAGAUTT against 9030221C07Rik | inactive: 1.57 |
| GCGAAGUGCCUGCUAUUCUTT against A830039B04Rik | inactive: -1.07 |
| GCCUGACUUUCUUAAAGGCTT against 2810006K23Rik | inactive: 0.773 |
| CCUAGAUUCGGACAAGGAUTT against Kctd5 | inactive: 0.849 |
| GGCCAAGAAGGAAAGGGAUTT against Atp1a1 | inactive: -1.33 |
| GCAGAAUAGCUGAUGACAGTT against Galntl2 | inactive: -0.634 |
| GGUGCAAGGAAAAACAAAATT against Ggh | inactive: 1.17 |
| GGCCAGAAAUGUACAUACATT against Map4k5 | inactive: -1.27 |
| GCCUGAAUAUUGCUAUCACTT against AI790205 | inactive: -0.89 |
| GCUGCCAAAAGAUCUCGGGTT against Nfil3 | inactive: 1.49 |
| GCAGCAAGCUUAAUUACAGTT against Wins2 | inactive: -0.351 |
| GGUUACGUCUACGACUGGATT against Scml2 | inactive: -1.52 |
| GGAAAUGAGGAUGAGGUCCTT against 0610009A07Rik | inactive: -0.817 |
| CGAGUACGCUCUGCUAUUCTT against Ptgds | inactive: -0.013 |
| GGAGGUCACCUUCUCAAACTT against Mrgprf | inactive: -0.558 |
| GGUUCAGUUUGCCAAAGACTT against A930017N06Rik | inactive: -2.86 |
| GGGACCGUCUUAAACAUCUTT against 2410005K20Rik | inactive: -0.496 |
| CCGUAUUGUCACUUGUGGGTT against Arpc1a | inactive: 0.218 |
| GGGAGGAGGACAACAAGUATT against Smap1 | inactive: -0.144 |
| GCACAAAUACAGGUCGUCUTT against Zc3hdc5 | inactive: -1.46 |
| GGGUGGAGUGAAAUACUUUTT against MGC27770 | inactive: 0.298 |

Four entries from above, with tabs:
Sequence	z-score
CCUAGAUUCGGACAAGGAUTT against Kctd5	inactive: 0.849
GGCCAAGAAGGAAAGGGAUTT against Atp1a1	inactive: -1.33
GCAGAAUAGCUGAUGACAGTT against Galntl2	inactive: -0.634
GGUGCAAGGAAAAACAAAATT against Ggh	inactive: 1.17
